This is one part of the list.
Experiments:
Test in all cases: log2 fold change, soluble protein after heating vs DMSO (PISA); higher = thermal stabilisation; K562 lysate, 10 uM; active = over 0.2 and 3.5 SD of the protein, either way, in both replicates (recomputed)
[1] = compound: NCC(=O)Nc1ccc(-n2nc(C(F)(F)F)cc2-c2ccc3c(ccc4ccccc43)c2)cc1
In short: (§1)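 Soluble protein was defined as the supernatant remaining after 21,000xg for 90 min, following pooling of heated aliquots and adjustment to 0.5% NP-40 at 4°C. Before that, crude K562 extract at 1 mg/mL protein in PBS pH 7.4 with 1 mM MgCl2 was treated with 10 μM compound for 30 min and heated for 3 min across 48°C-58°C. Quantification used TMTpro 16plex LC-MS/MS with channel sums equalised, and values are log-two fold changes in thermal stability relative to solvent controls from duplicates.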

Chains of the proteins cited; added tags and fusions are not shown. Lines headed by an entry give the natural chain unless they say otherwise; changes in a name come on top.
UniProt Q53R41: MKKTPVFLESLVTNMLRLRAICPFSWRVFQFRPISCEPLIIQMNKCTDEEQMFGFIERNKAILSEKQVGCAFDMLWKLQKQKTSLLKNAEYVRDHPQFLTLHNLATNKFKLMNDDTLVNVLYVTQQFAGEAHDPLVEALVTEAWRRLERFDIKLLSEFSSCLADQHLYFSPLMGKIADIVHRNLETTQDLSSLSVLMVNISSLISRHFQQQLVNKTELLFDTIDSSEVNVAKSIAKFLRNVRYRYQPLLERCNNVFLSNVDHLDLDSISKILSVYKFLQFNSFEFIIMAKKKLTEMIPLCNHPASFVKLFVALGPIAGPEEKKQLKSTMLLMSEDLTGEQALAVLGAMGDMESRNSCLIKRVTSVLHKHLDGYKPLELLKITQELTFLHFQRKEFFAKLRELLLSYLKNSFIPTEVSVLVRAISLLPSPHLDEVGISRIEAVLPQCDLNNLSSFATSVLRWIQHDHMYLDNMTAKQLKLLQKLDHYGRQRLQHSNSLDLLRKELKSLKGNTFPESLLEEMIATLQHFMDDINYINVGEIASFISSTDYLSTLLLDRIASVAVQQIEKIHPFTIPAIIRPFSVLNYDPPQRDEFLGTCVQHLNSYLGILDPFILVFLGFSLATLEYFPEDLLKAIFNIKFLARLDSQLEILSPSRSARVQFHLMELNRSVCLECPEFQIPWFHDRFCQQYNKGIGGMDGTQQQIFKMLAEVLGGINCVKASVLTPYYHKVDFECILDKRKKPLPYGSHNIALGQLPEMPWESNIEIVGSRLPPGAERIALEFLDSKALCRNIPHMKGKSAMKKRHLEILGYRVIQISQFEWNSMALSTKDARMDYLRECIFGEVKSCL
UniProt O43427: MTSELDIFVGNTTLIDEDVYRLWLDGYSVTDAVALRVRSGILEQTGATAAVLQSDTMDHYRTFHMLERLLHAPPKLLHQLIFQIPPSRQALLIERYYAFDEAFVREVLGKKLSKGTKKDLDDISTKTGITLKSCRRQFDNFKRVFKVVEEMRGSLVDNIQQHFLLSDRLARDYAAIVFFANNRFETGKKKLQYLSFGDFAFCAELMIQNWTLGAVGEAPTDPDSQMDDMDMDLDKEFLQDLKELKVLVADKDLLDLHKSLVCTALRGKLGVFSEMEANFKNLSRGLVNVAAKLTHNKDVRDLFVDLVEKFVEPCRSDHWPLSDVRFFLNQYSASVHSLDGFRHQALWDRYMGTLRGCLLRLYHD
UniProt Q9NYY8: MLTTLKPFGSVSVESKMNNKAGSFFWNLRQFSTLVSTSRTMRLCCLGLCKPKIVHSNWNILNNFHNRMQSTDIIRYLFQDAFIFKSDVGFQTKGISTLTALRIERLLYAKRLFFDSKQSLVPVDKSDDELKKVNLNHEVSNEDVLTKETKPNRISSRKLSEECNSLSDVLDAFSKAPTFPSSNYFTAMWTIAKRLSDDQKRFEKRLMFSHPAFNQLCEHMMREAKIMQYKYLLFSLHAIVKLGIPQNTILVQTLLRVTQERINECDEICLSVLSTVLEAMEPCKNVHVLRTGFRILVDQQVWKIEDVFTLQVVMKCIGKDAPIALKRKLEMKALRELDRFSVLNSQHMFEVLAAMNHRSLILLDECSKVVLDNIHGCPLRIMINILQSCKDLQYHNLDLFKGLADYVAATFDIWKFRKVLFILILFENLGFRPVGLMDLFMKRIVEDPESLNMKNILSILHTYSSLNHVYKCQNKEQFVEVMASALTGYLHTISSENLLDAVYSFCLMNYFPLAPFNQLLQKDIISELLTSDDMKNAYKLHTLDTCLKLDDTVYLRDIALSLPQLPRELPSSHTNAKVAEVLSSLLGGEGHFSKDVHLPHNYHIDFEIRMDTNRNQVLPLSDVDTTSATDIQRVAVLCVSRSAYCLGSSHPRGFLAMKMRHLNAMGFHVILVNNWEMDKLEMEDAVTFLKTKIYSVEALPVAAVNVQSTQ
UniProt P22830: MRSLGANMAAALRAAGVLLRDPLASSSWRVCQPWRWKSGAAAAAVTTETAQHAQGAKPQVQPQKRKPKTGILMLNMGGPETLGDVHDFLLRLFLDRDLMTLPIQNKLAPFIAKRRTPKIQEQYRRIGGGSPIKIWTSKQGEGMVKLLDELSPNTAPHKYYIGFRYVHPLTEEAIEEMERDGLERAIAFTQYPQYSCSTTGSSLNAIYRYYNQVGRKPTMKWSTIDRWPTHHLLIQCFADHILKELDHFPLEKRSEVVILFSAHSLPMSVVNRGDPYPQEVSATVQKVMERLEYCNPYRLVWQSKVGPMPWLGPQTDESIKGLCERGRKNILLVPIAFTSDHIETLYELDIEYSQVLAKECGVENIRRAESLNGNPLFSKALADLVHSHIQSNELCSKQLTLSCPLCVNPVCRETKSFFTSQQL
UniProt Q13045: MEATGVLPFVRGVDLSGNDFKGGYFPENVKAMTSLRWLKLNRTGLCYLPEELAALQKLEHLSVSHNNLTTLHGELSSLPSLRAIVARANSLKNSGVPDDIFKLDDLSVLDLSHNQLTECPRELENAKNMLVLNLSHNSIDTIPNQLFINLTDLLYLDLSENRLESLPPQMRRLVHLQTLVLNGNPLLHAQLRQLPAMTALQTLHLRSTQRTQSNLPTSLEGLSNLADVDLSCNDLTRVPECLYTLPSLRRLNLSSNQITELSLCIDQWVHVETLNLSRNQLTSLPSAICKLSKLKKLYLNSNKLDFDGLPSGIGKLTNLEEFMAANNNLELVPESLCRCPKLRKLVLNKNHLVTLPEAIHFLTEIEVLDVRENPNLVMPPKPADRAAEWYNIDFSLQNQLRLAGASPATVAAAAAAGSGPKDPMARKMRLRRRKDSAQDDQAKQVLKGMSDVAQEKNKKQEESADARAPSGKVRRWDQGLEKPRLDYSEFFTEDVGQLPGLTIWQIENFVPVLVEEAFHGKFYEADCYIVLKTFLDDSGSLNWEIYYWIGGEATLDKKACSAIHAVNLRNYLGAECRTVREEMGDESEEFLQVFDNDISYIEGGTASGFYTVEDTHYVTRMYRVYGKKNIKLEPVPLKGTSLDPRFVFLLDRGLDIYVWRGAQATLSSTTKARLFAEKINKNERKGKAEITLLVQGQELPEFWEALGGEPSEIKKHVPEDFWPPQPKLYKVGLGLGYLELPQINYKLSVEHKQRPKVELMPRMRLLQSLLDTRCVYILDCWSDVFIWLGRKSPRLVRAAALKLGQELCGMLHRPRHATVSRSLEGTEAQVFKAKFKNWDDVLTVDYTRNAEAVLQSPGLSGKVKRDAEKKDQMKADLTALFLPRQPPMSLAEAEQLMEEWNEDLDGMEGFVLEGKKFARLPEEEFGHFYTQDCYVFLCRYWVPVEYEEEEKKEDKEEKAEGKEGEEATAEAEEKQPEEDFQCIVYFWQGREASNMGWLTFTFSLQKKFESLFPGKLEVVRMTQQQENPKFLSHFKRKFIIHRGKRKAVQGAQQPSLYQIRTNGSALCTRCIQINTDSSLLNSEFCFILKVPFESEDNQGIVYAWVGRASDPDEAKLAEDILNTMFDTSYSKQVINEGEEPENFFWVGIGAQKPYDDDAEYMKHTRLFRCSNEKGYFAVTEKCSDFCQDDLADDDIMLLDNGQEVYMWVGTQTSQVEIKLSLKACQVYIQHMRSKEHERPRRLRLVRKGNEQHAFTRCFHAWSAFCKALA
UniProt P09038, whole entry, looked up: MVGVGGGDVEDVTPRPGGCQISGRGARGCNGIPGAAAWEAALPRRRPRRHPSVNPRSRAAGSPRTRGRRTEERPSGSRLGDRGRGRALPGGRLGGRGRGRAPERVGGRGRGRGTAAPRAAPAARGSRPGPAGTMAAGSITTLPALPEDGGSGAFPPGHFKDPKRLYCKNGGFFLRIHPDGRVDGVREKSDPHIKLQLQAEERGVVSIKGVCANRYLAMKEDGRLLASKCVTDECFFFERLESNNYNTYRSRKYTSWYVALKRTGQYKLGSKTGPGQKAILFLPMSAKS
UniProt Q8WVX9: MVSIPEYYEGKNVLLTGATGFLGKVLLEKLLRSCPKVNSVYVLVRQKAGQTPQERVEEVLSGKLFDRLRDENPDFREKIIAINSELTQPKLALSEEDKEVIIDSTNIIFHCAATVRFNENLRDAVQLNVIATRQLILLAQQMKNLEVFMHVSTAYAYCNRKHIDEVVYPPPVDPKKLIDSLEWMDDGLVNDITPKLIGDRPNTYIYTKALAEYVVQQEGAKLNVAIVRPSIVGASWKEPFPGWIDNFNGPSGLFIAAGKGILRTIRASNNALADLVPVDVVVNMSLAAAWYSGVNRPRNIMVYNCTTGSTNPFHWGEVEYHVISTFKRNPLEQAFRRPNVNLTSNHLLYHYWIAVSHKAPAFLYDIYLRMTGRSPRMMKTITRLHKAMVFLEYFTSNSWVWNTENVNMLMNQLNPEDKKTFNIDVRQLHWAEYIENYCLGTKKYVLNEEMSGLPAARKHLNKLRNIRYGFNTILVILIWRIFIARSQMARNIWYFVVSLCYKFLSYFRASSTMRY
UniProt Q96CP2: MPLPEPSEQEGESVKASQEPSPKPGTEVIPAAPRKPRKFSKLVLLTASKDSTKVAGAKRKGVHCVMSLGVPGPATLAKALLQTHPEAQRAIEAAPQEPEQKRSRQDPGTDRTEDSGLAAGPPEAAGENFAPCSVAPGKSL
UniProt Q52LJ0: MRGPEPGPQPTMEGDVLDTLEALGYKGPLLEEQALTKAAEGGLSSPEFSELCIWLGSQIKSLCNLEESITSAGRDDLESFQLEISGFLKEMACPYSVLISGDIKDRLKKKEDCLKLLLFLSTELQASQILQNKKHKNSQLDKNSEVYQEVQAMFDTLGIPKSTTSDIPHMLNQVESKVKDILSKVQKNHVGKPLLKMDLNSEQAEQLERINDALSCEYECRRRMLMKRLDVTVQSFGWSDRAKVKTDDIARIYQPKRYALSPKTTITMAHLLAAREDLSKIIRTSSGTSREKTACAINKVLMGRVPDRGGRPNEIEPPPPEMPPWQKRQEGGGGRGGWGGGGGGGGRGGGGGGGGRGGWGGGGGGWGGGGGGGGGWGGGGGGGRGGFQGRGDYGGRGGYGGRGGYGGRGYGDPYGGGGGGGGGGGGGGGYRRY
UniProt P26885: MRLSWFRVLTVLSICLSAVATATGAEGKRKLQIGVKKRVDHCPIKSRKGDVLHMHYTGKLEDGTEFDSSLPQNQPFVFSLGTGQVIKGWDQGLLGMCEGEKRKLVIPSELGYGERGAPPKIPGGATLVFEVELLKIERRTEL
UniProt O95466, whole entry, looked up: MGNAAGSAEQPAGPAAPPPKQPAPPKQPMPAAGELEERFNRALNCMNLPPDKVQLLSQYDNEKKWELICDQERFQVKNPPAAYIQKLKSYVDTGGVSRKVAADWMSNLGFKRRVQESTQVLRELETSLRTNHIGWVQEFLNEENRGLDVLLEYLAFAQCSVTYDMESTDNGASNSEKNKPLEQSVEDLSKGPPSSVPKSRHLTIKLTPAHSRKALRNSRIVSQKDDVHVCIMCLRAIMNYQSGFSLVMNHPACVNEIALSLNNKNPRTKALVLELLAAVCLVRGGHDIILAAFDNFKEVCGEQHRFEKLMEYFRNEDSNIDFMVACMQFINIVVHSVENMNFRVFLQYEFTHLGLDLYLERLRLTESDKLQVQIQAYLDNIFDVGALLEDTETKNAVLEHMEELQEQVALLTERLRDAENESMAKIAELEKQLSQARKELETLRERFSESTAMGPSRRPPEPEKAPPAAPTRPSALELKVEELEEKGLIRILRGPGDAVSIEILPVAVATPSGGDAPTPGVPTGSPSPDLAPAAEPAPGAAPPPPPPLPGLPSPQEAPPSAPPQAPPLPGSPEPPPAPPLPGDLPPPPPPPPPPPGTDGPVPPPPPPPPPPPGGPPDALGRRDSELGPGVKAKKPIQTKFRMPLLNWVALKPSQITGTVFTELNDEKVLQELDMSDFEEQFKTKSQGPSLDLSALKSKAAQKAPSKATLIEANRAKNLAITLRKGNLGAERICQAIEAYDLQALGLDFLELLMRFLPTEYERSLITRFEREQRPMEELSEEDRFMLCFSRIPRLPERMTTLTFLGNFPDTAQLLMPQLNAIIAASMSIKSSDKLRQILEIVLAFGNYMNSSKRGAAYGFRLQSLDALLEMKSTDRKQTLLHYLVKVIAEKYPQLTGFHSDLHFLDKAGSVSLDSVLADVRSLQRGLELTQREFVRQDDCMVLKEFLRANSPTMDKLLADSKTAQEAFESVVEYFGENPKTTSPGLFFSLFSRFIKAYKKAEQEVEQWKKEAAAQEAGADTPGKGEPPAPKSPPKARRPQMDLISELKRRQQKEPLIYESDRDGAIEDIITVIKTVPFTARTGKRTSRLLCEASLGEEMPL
UniProt Q14192: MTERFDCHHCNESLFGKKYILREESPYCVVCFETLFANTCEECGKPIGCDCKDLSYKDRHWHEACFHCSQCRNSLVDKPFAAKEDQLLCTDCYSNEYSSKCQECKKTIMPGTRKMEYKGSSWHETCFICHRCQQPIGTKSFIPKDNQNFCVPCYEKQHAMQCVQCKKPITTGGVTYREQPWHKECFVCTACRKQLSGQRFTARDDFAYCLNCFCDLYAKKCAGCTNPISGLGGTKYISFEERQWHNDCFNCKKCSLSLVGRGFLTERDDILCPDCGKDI

vorinostat = compound: O=C(CCCCCCC(=O)Nc1ccccc1)NO [vorinostat]
In short: as §1

silmitasertib = compound: O=C(O)c1ccc2c(c1)nc(Nc1cccc(Cl)c1)c1ccncc12 [silmitasertib]
In short: as §1

[2] = compound: O=C1NC(=O)C(c2cnc3ccccn23)=C1c1cn2c3c(cc(F)cc13)CN(C(=O)N1CCCCC1)CC2
In short: as §1

entospletinib = compound: c1cn2cc(-c3ccc4cn[nH]c4c3)nc(Nc3ccc(N4CCOCC4)cc3)c2n1 [entospletinib]
In short: as §1

| Target | log2 fold change [1] | log2 fold change (vorinostat) | log2 fold change (silmitasertib) | log2 fold change [2] | log2 fold change (entospletinib) |
| --- | --- | --- | --- | --- | --- |
| FBXO30 (UniProt Q8TB52) | inactive: -0.01 | active: -0.316 | inactive: 0.042 | inactive: -0.019 | inactive: 0.013 |
| FCHSD1 (UniProt Q86WN1) | inactive: -0.14 | inactive: 0.021 | inactive: 0.008 | inactive: 0.063 | inactive: 0.027 |
| FASTKD1 (UniProt Q53R41) | inactive: 0.021 | inactive: -0.293 | inactive: 0.06 | inactive: 0.028 | inactive: 0.002 |
| FIBP (UniProt O43427) | inactive: -0.049 | inactive: -0.006 | inactive: 0.119 | inactive: -0.02 | inactive: -0.049 |
| FGD6 (UniProt Q6ZV73) | inactive: 0.268 | inactive: -0.269 | inactive: 0.02 | inactive: 0.717 | inactive: -0.14 |
| FBXO7 (UniProt Q9Y3I1) | inactive: 0.007 | inactive: -0.033 | inactive: -0.017 | inactive: -0.065 | inactive: 0.024 |
| FASTKD2 (UniProt Q9NYY8) | inactive: 0.008 | active: -0.524 | inactive: 0.044 | inactive: 0.025 | inactive: 0.013 |
| FECH isoform 2 (UniProt P22830) | inactive: -0.185 | inactive: -0.401 | inactive: -0.03 | inactive: -0.021 | inactive: 0.977 |
| FAM8A1 (UniProt Q9UBU6) | inactive: 0.081 | inactive: 0.182 | inactive: -0.037 | inactive: 0.067 | inactive: 0.125 |
| FLII (UniProt Q13045) | inactive: -0.032 | inactive: -0.145 | inactive: 0.026 | inactive: -0.031 | inactive: 0.01 |
| FBRSL1, A0A3B3IRR3 | inactive: 0.043 | inactive: 0.142 | inactive: -0.013 | inactive: 0.069 | inactive: -0.087 |
| FGF2 (UniProt P09038) | inactive: 0.022 | inactive: 0.097 | inactive: 0.043 | inactive: 0.044 | inactive: -0.013 |
| FH (UniProt P07954) | inactive: 0.03 | inactive: 0.032 | inactive: -0.01 | inactive: -0.011 | inactive: 0.016 |
| FNBP4 isoform 2 (UniProt Q8N3X1) | inactive: -0.015 | inactive: 0.034 | inactive: -0.003 | inactive: -0.021 | inactive: -0.019 |
| FDXR isoform 7 (UniProt P22570) | inactive: -0.001 | inactive: -0.24 | inactive: 0.069 | inactive: -0.046 | inactive: 0.046 |
| FNBP1 (UniProt Q96RU3) | inactive: 0.049 | inactive: -0.057 | inactive: -0.006 | inactive: 0.001 | inactive: -0.074 |
| FAR1 (UniProt Q8WVX9) | inactive: -0.125 | inactive: -0.124 | inactive: 0.055 | inactive: -0.03 | inactive: 0.097 |
| FLYWCH2 (UniProt Q96CP2) | inactive: 0.022 | inactive: 0.068 | inactive: -0.064 | inactive: 0 | inactive: -0.03 |
| FAM98B (UniProt Q52LJ0) | inactive: -0.018 | inactive: -0.088 | inactive: 0.011 | inactive: -0.017 | inactive: 0.031 |
| FERMT3 (UniProt Q86UX7) | inactive: 0.001 | inactive: -0.034 | inactive: -0.001 | inactive: 0.002 | inactive: -0.003 |
| FKBP2 (UniProt P26885) | inactive: 0.014 | inactive: 0.146 | inactive: -0.027 | inactive: 0.072 | inactive: 0.013 |
| FEM1B (UniProt Q9UK73) | inactive: 0.035 | inactive: 0.028 | inactive: -0.026 | inactive: -0.054 | inactive: -0.074 |
| FMNL1 isoform 3 (UniProt O95466) | inactive: 0.051 | active: -0.292 | inactive: -0.01 | inactive: 0.071 | inactive: -0.066 |
| FLNB isoform 8 (UniProt O75369) | inactive: 0.011 | inactive: 0.019 | inactive: -0.017 | inactive: 0.004 | inactive: 0.035 |
| FHL2 (UniProt Q14192) | inactive: -0.073 | inactive: -0.078 | inactive: 0.04 | inactive: -0.002 | inactive: -0.007 |
| FANCI (UniProt Q9NVI1) | inactive: 0.002 | active: -0.389 | inactive: 0.062 | inactive: 0.018 | inactive: 0.039 |

Another view of part of the listing above.
Target,log2 fold change [1],log2 fold change (vorinostat),log2 fold change (silmitasertib),log2 fold change [2],log2 fold change (entospletinib)
FNBP1 (UniProt Q96RU3),inactive: 0.049,inactive: -0.057,inactive: -0.006,inactive: 0.001,inactive: -0.074
FAR1 (UniProt Q8WVX9),inactive: -0.125,inactive: -0.124,inactive: 0.055,inactive: -0.03,inactive: 0.097

— the supplement of paper PMC10849652
